Patent US20230119764A1, “APPLICATION OF DIMETHYL BERBAMINE COMPOUND IN INHIBITION OF SARS-COV-2” (priority 2020, published 2023)
Entries after “also recorded” stand apart in the source; their conditions may differ. Where two headings read alike, the source gives them in different places. For at least one compound, name, drawing or mass did not settle the structure.

Columns and labels:
[1] = test system: SARS-CoV-2 virus (nCoV-2019BetaCoV/Wuhan/WIV04/2019 isolate); type: cell-based; settings: Example 2, drug added after virus infection of cells
SARS-CoV-2 virus = settings: previous studies, Wang et al., 2020; cited from earlier work
[2] = test system: SARS-CoV-2 virus (nCoV-2019BetaCoV/Wuhan/WIV04/2019 isolate); type: cell-based; settings: Example 1, in vitro, Vero E6

## CCC(CC)COC(=O)[C@H](C)N[P@](=O)(OC[C@H]1O[C@@](C#N)(c2ccc3c(N)ncnn23)[C@H](O)[C@@H]1O)Oc1ccccc1 [Remdesivir]
[1]
  Inhibition of SARS-CoV-2 (in words): obvious inhibitory effects; also recorded: inhibitory activity
SARS-CoV-2 virus
  Inhibition of replication of SARS-CoV-2 virus (in words): can effectively inhibit the replication
[2]
  Inhibition of SARS-CoV-2 (in words): obvious inhibitory effects; also recorded: inhibitory activity
